Measured values: publication PMC7819943, “Rice protein-binding microarrays: a tool to detect cis-acting elements near promoter regions in rice”
The other results are listed elsewhere or left out.

Chains of the proteins cited; added tags and fusions are not shown.
UniProt Q0JBA9, entry or part of it: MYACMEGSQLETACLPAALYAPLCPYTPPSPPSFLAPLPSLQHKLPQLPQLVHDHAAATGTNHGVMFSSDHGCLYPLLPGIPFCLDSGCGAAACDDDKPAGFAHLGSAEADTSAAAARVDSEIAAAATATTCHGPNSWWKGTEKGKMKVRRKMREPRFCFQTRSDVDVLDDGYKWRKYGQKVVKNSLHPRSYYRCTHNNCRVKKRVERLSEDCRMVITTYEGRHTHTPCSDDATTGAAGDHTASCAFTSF

These sequences were tested against OsWRKY34 (Oryza sativa, UniProt Q0JBA9 1-250) (assay: protein-binding microarray (RPBM); PBS, 2% BSA, 51.3 ng/ul salmon testes DNA, 50 uM zinc acetate, 200 nM TF, 25 C, 1 h; high values mean tight binding). Details: protein: recombinant; tags: N-terminal polyhistidine and DsRed monomer fusion (pET32a); label: CyDye5-dUTP incorporated in the synthesized complementary strand; 3' TTTTT single-stranded linker to array surface; dsDNA, one strand shown.
Outline: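 Using Ni–NTA, transcription factors fused N-terminally to polyhistidine and DsRed were purified after expression in E. coli BL21-CodonPlus. These were incubated at 200 nM with a blocked, double-stranded custom Agilent array for 1 h at 25 °C in a buffer containing 50 µM zinc acetate, and the array was washed. The binding signal is per-feature fluorescence intensity (arbitrary units) on an Axon 4000B scanner.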

Sequence	binding signal
GTTCTGTTTAGGGGCCGGGGTGGCATAACAGAATAAGTTGCGGAGTCACCTAGTGCAG	9040 fluorescence intensity (a.u.)
CCAAGCCGCGGACTTCTCTTTTTTCTTTTCTTTTCTCTATCGGAGTCACCTAGTGCAG	10300 fluorescence intensity (a.u.)
TATATTGCGCGTCTTAAAATTCAGCTATTGTTTCGTTGAACGGAGTCACCTAGTGCAG	8120 fluorescence intensity (a.u.)
TCTTTTTTATGCCCTGGTCTTAGCTTACGTATGTTTTTACCGGAGTCACCTAGTGCAG	10500 fluorescence intensity (a.u.)
TATTTTCCTGATGTTTTGCAGCATACTCTTTTGTTTTCAACGGAGTCACCTAGTGCAG	9390 fluorescence intensity (a.u.)
ACCTTTGAATTCTTATAAATACCACGAATTCATCCTGTCCCGGAGTCACCTAGTGCAG	8110 fluorescence intensity (a.u.)
TTTTTTTTTGCGAGGAACTACACTATTTCTTTTAGAACCACGGAGTCACCTAGTGCAG	8380 fluorescence intensity (a.u.)
ATATCCCCACCACGCAACACGGGCAATTCGGCGCGCGTGCCGGAGTCACCTAGTGCAG	8370 fluorescence intensity (a.u.)
TTATCTCGCGATTTACATACAGCCTATGCAATTAGCTTTTCGGAGTCACCTAGTGCAG	8050 fluorescence intensity (a.u.)
CTTCCTTTTCTCTTCTTCTTCTTCTTCTTTTGCGTGGGGACGGAGTCACCTAGTGCAG	9650 fluorescence intensity (a.u.)
TCTTTAGTTCAGTTAATCCTCCTTTTAAAAGGATAGCTCTCGGAGTCACCTAGTGCAG	8200 fluorescence intensity (a.u.)
GTGATGTAAGTTGGCAATAATTTCCCTTGCCATTTTGTTTCGGAGTCACCTAGTGCAG	8630 fluorescence intensity (a.u.)
TGTTAAGTATGTTGTTGTTGTGTCCCTTGCTTCATTGGTGCGGAGTCACCTAGTGCAG	10500 fluorescence intensity (a.u.)
CCTATGTATAGTGCTTAGATGCCGTTGTCCGAAGGTTCAGCGGAGTCACCTAGTGCAG	9050 fluorescence intensity (a.u.)
TTTTATTTTATACCGGTTCATATTATTTCACAGTATTACTCGGAGTCACCTAGTGCAG	8360 fluorescence intensity (a.u.)
GCGCCCACCGCTTCCCGCTCCTTCACGCTCTCCACTCCGCCGGAGTCACCTAGTGCAG	8770 fluorescence intensity (a.u.)
TCCATTGCTTTCCTGTATGGACCGTGTTATAACATGCAATCGGAGTCACCTAGTGCAG	10700 fluorescence intensity (a.u.)
TGCATGGGTGGTGGTTTTTTTTCTTCGTTTTTCTGAGTACCGGAGTCACCTAGTGCAG	12600 fluorescence intensity (a.u.)
TTTTATGTTTGTTGGTTGTTGAGTTTATGTGATTATATTTCGGAGTCACCTAGTGCAG	9050 fluorescence intensity (a.u.)
AATATAAACCCTGATTTGTACCCATACCTCCATAATTCAACGGAGTCACCTAGTGCAG	10400 fluorescence intensity (a.u.)
TACGCGTTATTTGTTTTTCGCAGCGTTTCCTTTTTTTTTTCGGAGTCACCTAGTGCAG	9540 fluorescence intensity (a.u.)

Sequence	binding signal
GTTGGGATCTAGCTTGTTCTAGCGATTGTTTTTTTTTTATCGGAGTCACCTAGTGCAG	8170 fluorescence intensity (a.u.)
GATGATTCGGAGTTAGTAGTGGCCTATCCTATTAAACTTGCGGAGTCACCTAGTGCAG	8160 fluorescence intensity (a.u.)
GCCTCTCCTTTTTATCTGCTGTGGATTGGATAATTGGACACGGAGTCACCTAGTGCAG	8250 fluorescence intensity (a.u.)
GGTTATATCCGATTTTACGGTTAAGGGGTGTGATTTGACCCGGAGTCACCTAGTGCAG	9360 fluorescence intensity (a.u.)
CGACGCTGATCTCAAATATTTCGACCACCATTGCCCGTATCGGAGTCACCTAGTGCAG	9900 fluorescence intensity (a.u.)
TATATTTGTCAAGGTTATTGGAGATCCTTCCTTGGGTTCCCGGAGTCACCTAGTGCAG	8050 fluorescence intensity (a.u.)
TATCATTTCTCTCGATGATTCCTTTTTCTCTTTTGTTCATCGGAGTCACCTAGTGCAG	8580 fluorescence intensity (a.u.)
CAGCTGGCACCACCCATTCCTCGCGTCGCATCGCACTTGTCGGAGTCACCTAGTGCAG	13500 fluorescence intensity (a.u.)
TTGGTTGATTAATACATAAGGTAGTCTTGGTTATATCCGACGGAGTCACCTAGTGCAG	8320 fluorescence intensity (a.u.)
TCTCTCGTTTTCCACACACACGTTTTTTAAACTGCTAAACCGGAGTCACCTAGTGCAG	10200 fluorescence intensity (a.u.)
CCTCCATGGATCGATCGATCTCGACGACGACCTTGCACTACGGAGTCACCTAGTGCAG	8290 fluorescence intensity (a.u.)
TTGGGTTGGCATGAAAGTGCCTTGTGATGATACTGATAGACGGAGTCACCTAGTGCAG	9960 fluorescence intensity (a.u.)
ATCTTTCAATCTATGTATTATTTCAATCTACGTATTAATACGGAGTCACCTAGTGCAG	10500 fluorescence intensity (a.u.)
CCCACATCGACCATCCTGCCTTGTACGTCATCCCCGCCCTCGGAGTCACCTAGTGCAG	10900 fluorescence intensity (a.u.)
CTGTGTGGCGGCGGCAGCGGTCCCGGTGGAGTGGGAGGGGCGGAGTCACCTAGTGCAG	11200 fluorescence intensity (a.u.)
TTAGTTGTTACCTTTGTCTCCTTCGTTGATCCATTGAAAGCGGAGTCACCTAGTGCAG	10500 fluorescence intensity (a.u.)
TCTTCTTCTCTTCTTCCTTGCATGCTCTAACAAGGAAGCACGGAGTCACCTAGTGCAG	8080 fluorescence intensity (a.u.)
GATGCGCGCGAACGGAGACGACGGGGTAGGGTGGGGAGGGCGGAGTCACCTAGTGCAG	12300 fluorescence intensity (a.u.)
CATTATCGTCCCATGTGTTGTCTGCATTGCGGCATGCGTTCGGAGTCACCTAGTGCAG	9230 fluorescence intensity (a.u.)
GAGGCTGTTGGAGTTGCTTGGAGAGTGGTTTGATAGAGGCCGGAGTCACCTAGTGCAG	8100 fluorescence intensity (a.u.)
AGATAGATAGTCCCTTTGTTTTTGCCTCTTGATCTGTTACCGGAGTCACCTAGTGCAG	9350 fluorescence intensity (a.u.)

Sequence	binding signal
CATTTCTTTGACTCTTCGTCAATATAATATTTACGTGTCCCGGAGTCACCTAGTGCAG	9950 fluorescence intensity (a.u.)
TTCGTTTGCTCTGCTCTTTCTTATGCAAGATGTGTTTAATCGGAGTCACCTAGTGCAG	9840 fluorescence intensity (a.u.)
ACACTTTTATGTCTACCCACTCCCCTAGCTTGCATCCCAACGGAGTCACCTAGTGCAG	8280 fluorescence intensity (a.u.)
ATGAGTGACTAGTATATGCATGTTGATCGATCCTCCGGCGCGGAGTCACCTAGTGCAG	8100 fluorescence intensity (a.u.)
GTGCGTTTGCTGACCTCGCGATCTCCGCTACCACCACCAGCGGAGTCACCTAGTGCAG	8750 fluorescence intensity (a.u.)
ACCGCGACCTCTCCCGCCTCGCGTCCACATTGTGTGACCTCGGAGTCACCTAGTGCAG	9520 fluorescence intensity (a.u.)
CGTTTTTGCGTATCTTCCTAATCTCCTCAATCACCTTATCCGGAGTCACCTAGTGCAG	11400 fluorescence intensity (a.u.)
TGCCGCCGCCCGCCGTGCTTAGGGGTATTTTCATTATTTTCGGAGTCACCTAGTGCAG	9090 fluorescence intensity (a.u.)
CTAGCTATAGCATCAGTGTGCGCCAATGTCCTATATTATGCGGAGTCACCTAGTGCAG	8440 fluorescence intensity (a.u.)
GCCATCCGAGCCCAACTCTACCCAGGCCCATCTCAGCCCACGGAGTCACCTAGTGCAG	8200 fluorescence intensity (a.u.)
TGCCACTACTTGATGCTCTTAGGTTCTGTCCATCTTCACCCGGAGTCACCTAGTGCAG	8900 fluorescence intensity (a.u.)
TATTAGCTTAGGTGTTGGTCTTCTCTCGTAGTCGGGTCTTCGGAGTCACCTAGTGCAG	9900 fluorescence intensity (a.u.)
CGTTGTGGTGGTGGTGGTGGTGAGCGCGTGGGCGCGTAAACGGAGTCACCTAGTGCAG	9060 fluorescence intensity (a.u.)
TCTCTGCACGCTGCATTCCAACACGAAAGCCAAGCATTACCGGAGTCACCTAGTGCAG	8080 fluorescence intensity (a.u.)
GAGTGTACTGCCTTTATCTGCTGTCTGATTGCTGCATTTCCGGAGTCACCTAGTGCAG	9700 fluorescence intensity (a.u.)
AGCACGTTTGACTTCCCTCCCCTCACCCTCCACATGCTGGCGGAGTCACCTAGTGCAG	9210 fluorescence intensity (a.u.)
TCCTTGTCTTCTCATGTTGCACCACGCCGCAGCTTAGGAGCGGAGTCACCTAGTGCAG	12700 fluorescence intensity (a.u.)
AGCGCGCCGGCCTCTCCTTCCCCGTAGCCGCTCGGCGCGCCGGAGTCACCTAGTGCAG	8810 fluorescence intensity (a.u.)
TTAAGTATATTGGTTTTGTAGGTTGAGTGACGCGCTATTTCGGAGTCACCTAGTGCAG	10400 fluorescence intensity (a.u.)
GCATTGCCCCTCGCCTGTCGCTGCCTGCGCCTTGTCCAGCCGGAGTCACCTAGTGCAG	8640 fluorescence intensity (a.u.)
GGGCGAGTGGAGGAGGAGGGGTAGTCTCGTCATTTGCCACCGGAGTCACCTAGTGCAG	10900 fluorescence intensity (a.u.)

Sequence	binding signal
CTCGCCTTTTTTTAAGCTCTTTTCTATTCACGTGCCTACGCGGAGTCACCTAGTGCAG	9000 fluorescence intensity (a.u.)
GTAGACCGCTGGGCTGGGCTGGGCTGCGCTGGGTTGGGAGCGGAGTCACCTAGTGCAG	8740 fluorescence intensity (a.u.)
ACAAAATATTCTTTTGCATTGAAGCCGACCGTTTTATTTTCGGAGTCACCTAGTGCAG	8560 fluorescence intensity (a.u.)
TCCTCCGATCCCAATCCAACGCTCCAACCCCACGCTCCCACGGAGTCACCTAGTGCAG	8570 fluorescence intensity (a.u.)
GCGAGCTCGCCGTCGTGGCGACGACCACATCTGCAGCTACCGGAGTCACCTAGTGCAG	8240 fluorescence intensity (a.u.)
GCTTGCTCTGAATAGTTGAATATTGTCCCTCTGTCTCGATCGGAGTCACCTAGTGCAG	8850 fluorescence intensity (a.u.)
GTCAGTCCTTCAGTCAGTCAGTCACCGTGCCCCAGACGAACGGAGTCACCTAGTGCAG	8540 fluorescence intensity (a.u.)
TATTTTCTGTAATTTTATCCATGTTTTGTGTCTGAGTTTCCGGAGTCACCTAGTGCAG	9350 fluorescence intensity (a.u.)
TCACCGCTGCTCGATTCCTTTACTCTTATACCTTCGCCACCGGAGTCACCTAGTGCAG	11500 fluorescence intensity (a.u.)
ATCGTCCGTCCGTGTTCTTGTAATCTAGCTCGCCACCTCGCGGAGTCACCTAGTGCAG	12400 fluorescence intensity (a.u.)
ATTTTTCCCTCACTGTCTACTATTTTTCATTTTTTATATGCGGAGTCACCTAGTGCAG	8940 fluorescence intensity (a.u.)
ATTATTTGGTTGGTAGTAGTATCGGTGGCCGACTTAAACTCGGAGTCACCTAGTGCAG	9520 fluorescence intensity (a.u.)
TCGTTTGATTAACCAGGAATTCCTCGTCTGCCTTAATGGTCGGAGTCACCTAGTGCAG	8280 fluorescence intensity (a.u.)
CCGTCCCTCTCACTCTCCCGTGGACCGTGCGCGCTCTAGCCGGAGTCACCTAGTGCAG	8500 fluorescence intensity (a.u.)
CTTTAGTCCATCTACCGAGCCAATCACCTATTATATTTGTCGGAGTCACCTAGTGCAG	9360 fluorescence intensity (a.u.)
CTTTCCGTCGCGTCTCGTCTTCTCATGGTTGCAACTCTCCCGGAGTCACCTAGTGCAG	18100 fluorescence intensity (a.u.)
ACCTTCTTGAGCGCCACGATCTTGCCCGTCACCGTGTCCCCGGAGTCACCTAGTGCAG	9750 fluorescence intensity (a.u.)
CTTCTCATTCACCTCCATCTCATCTCCATTACACTGCATGCGGAGTCACCTAGTGCAG	9600 fluorescence intensity (a.u.)
TCGCGCCGCCCACTTCGTCATCCTCCTCGCGTACTCCGCTCGGAGTCACCTAGTGCAG	9420 fluorescence intensity (a.u.)
CGTACCTAGCCAGCAGATTTATGTTTGTTTGGTTGACTGCCGGAGTCACCTAGTGCAG	8060 fluorescence intensity (a.u.)
GGACGGCGCGGGTGGGTGGGCCCCACAGGGCGGTGACTGACGGAGTCACCTAGTGCAG	8840 fluorescence intensity (a.u.)

Single values from the list.
Value for AGCACGTTTGACTTCCCTCCCCTCACCCTCCACATGCTGGCGGAGTCACCTAGTGCAG under binding signal: 9210 fluorescence intensity (a.u.)
Value for GTTGGGATCTAGCTTGTTCTAGCGATTGTTTTTTTTTTATCGGAGTCACCTAGTGCAG under binding signal: 8170 fluorescence intensity (a.u.)
Value for GCGAGCTCGCCGTCGTGGCGACGACCACATCTGCAGCTACCGGAGTCACCTAGTGCAG under binding signal: 8240 fluorescence intensity (a.u.)
